Experimental data: patent publication US20050058745A1, “Use of Labiatae herb preparations for extending the flavor shelf life of malt beverages” (priority 2003, published 2005)
Some of these results come from one statement about several compounds together.

Assay: Solubility in beer and malt beverages
Type: physicochemical

CC(C)c1cc2c(c(O)c1O)[C@@]1(C(=O)O)CCCC(C)(C)[C@@H]1CC2 [CA, carnosic acid]
concentrations at which soluble in beer and malt beverages: less than 100 ppm

CC(C)c1cc2c(c(O)c1O)[C@@]13CCCC(C)(C)[C@@H]1C[C@@H]2OC3=O [CN, carnosol]
concentrations at which soluble in beer and malt beverages: less than 100 ppm
